The list shows a part of the results.

Amino acid sequences for entries named in this document (tags omitted).
UniProt Q0JBA9, entry or part of it: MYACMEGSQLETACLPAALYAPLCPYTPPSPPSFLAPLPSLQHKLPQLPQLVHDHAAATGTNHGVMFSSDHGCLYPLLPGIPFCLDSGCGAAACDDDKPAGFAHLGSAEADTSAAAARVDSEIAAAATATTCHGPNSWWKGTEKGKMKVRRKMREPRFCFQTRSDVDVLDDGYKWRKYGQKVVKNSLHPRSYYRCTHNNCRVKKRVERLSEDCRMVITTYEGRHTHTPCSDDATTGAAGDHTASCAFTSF

The test concerns the target OsWRKY34 (Oryza sativa, UniProt Q0JBA9 1-250). Description: protein-binding microarray (RPBM); PBS, 2% BSA, 51.3 ng/ul salmon testes DNA, 50 uM zinc acetate, 200 nM TF, 25 C, 1 h; high values mean tight binding. To be noted: protein: recombinant; tags: N-terminal polyhistidine and DsRed monomer fusion (pET32a); label: CyDye5-dUTP incorporated in the synthesized complementary strand; 3' TTTTT single-stranded linker to array surface; dsDNA, one strand shown. Summed up:
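The binding signal for each feature is its fluorescence intensity in arbitrary units. An Axon 4000B scanner was used to read a custom Agilent array that had been made double-stranded with Cy5-dUTP primer extension, blocked with 2% BSA, incubated at 25 °C for 1 h with 200 nM protein in PBS, 2% BSA, salmon testes DNA and 50 µM zinc acetate, and washed. The protein was an N-terminal polyhistidine–DsRed transcription factor fusion from E. coli BL21-CodonPlus, purified on Ni–NTA.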
As for “GCGTCCAATCCGCCGTCGACTGCTGGCCACCGCGTCGATCCGGAGTCACCTAGTGCAG”, the binding signal was 8840 fluorescence intensity (a.u.).

Consider “AGTTATCTTGCTACTATTTCTAAGTGATGTATTGGCTTATCGGAGTCACCTAGTGCAG”, for which the binding signal was 10400 fluorescence intensity (a.u.).

Consider “CCTGTACTATGGTAGTAATTACTTTATACTTAAAATTTCCCGGAGTCACCTAGTGCAG”, for which the binding signal was 8230 fluorescence intensity (a.u.).

Consider “TTCTTGCTAGTTCTTGTAGTATCTGGTTCTTGCTAGTTCTCGGAGTCACCTAGTGCAG”, for which the binding signal is 10800 fluorescence intensity (a.u.).

As to “AATATATGTATTGTTCAGGATGGTGGTGGACTGGTGCGCCCGGAGTCACCTAGTGCAG”, the binding signal was 8980 fluorescence intensity (a.u.).

For the sequence “GCGCGGGACGGGAGACTCCTTTTGTTTGTCACTTTCCGCCCGGAGTCACCTAGTGCAG”, the binding signal is 9730 fluorescence intensity (a.u.).

Regarding “CACACCTTTCTCTTCTTCCACACTACAGTATTCAGCAACTCGGAGTCACCTAGTGCAG”, the binding signal was 8820 fluorescence intensity (a.u.).

“CAAATAGTTACATTCTCGTTGGGCCACCGCGGTTTGCTTCCGGAGTCACCTAGTGCAG”: the binding signal is 9100 fluorescence intensity (a.u.).

For “TCATGGATTGGCAGCACGCTATCCTGGACGTCATTGTTTCCGGAGTCACCTAGTGCAG”, the binding signal is 8380 fluorescence intensity (a.u.).

With “CTAGCAATTTGTTTTTCTTCGTACATAAATCTTGAGACGACGGAGTCACCTAGTGCAG”, the binding signal was 8740 fluorescence intensity (a.u.).

Turning to “GTTGGTTGATTACATTTTGAATGCGTGGTTGAGATCGAGTCGGAGTCACCTAGTGCAG”, the binding signal was 8400 fluorescence intensity (a.u.).

Regarding “CAACCATGAGGGGAGGGGAGGCCATAGTGGAGGACTGGAGCGGAGTCACCTAGTGCAG”, the binding signal was 8080 fluorescence intensity (a.u.).

“GGATCAGTAATGCCCATGGTCTTTTTCTACATATGTCATTCGGAGTCACCTAGTGCAG”: the binding signal is 10500 fluorescence intensity (a.u.).

“GGCACTTTTTTCCCATCGCGTCCCATTTAGGTGCACGCCCCGGAGTCACCTAGTGCAG”: the binding signal was 9340 fluorescence intensity (a.u.).

“GCAGGATAGACCCGCGAGCTGCTACACTTGTCCTCATTTACGGAGTCACCTAGTGCAG”: the binding signal is 9080 fluorescence intensity (a.u.).

Turning to “ATGTGTCCTCATGTTTGGCGTGTCCCTTCTGACTGATTCGCGGAGTCACCTAGTGCAG”, the binding signal is 9530 fluorescence intensity (a.u.).

As for “CTCGTTTAGTTGGGGAAAATTTTTCAGTTTGGTTGTCACACGGAGTCACCTAGTGCAG”, the binding signal is 8570 fluorescence intensity (a.u.).

For “TGTAACCTACTCCTGTCTAATTCCTGCGCTTAACTAAATTCGGAGTCACCTAGTGCAG”, the binding signal was 11800 fluorescence intensity (a.u.).

Regarding “ATACTTAGTTAGCTATACTATACTACTCTTCTTCTTCTTCCGGAGTCACCTAGTGCAG”, the binding signal is 9260 fluorescence intensity (a.u.).

Turning to “GACTCGGACACGGACCCTGCCGGTCTGACCGCCCACATACCGGAGTCACCTAGTGCAG”, the binding signal is 11100 fluorescence intensity (a.u.).

“TGGCGCCATATGCTACAGTCGATTTTTTTTTAGCCACTTACGGAGTCACCTAGTGCAG”: the binding signal is 9820 fluorescence intensity (a.u.).

Take “TGACATTTAAATTCTGTTTCTCTCTTTGTGTTTTAGTTCCCGGAGTCACCTAGTGCAG”: the binding signal was 9720 fluorescence intensity (a.u.).

Turning to “CTTCAACTCTCACTCCATCATTCAATACTGGGCCTTGCTTCGGAGTCACCTAGTGCAG”, the binding signal was 8040 fluorescence intensity (a.u.).

On to “CGGTTTTTTAGGGAATGGTTTTCCACGGTTTTCTTTTTTCCGGAGTCACCTAGTGCAG”, for which the binding signal is 8320 fluorescence intensity (a.u.).

For the sequence “ACCCCGTTCAACGCTCGCTTATATATATTCCCCTCTCGCACGGAGTCACCTAGTGCAG”, the binding signal is 8640 fluorescence intensity (a.u.).

Consider “CTCGGTATCGGATGGATTTATTCCGTTTTATAAGGGAGGGCGGAGTCACCTAGTGCAG”, for which the binding signal is 8790 fluorescence intensity (a.u.).

As to “TCTCGCTCCTCATGCTCCTCTCCCGGCGGCGACGCTATGCCGGAGTCACCTAGTGCAG”, the binding signal is 8080 fluorescence intensity (a.u.).

As for “TTGGTTCAGCTCAACCTCATGCTCCACGCTATCCGCCACTCGGAGTCACCTAGTGCAG”, the binding signal is 9760 fluorescence intensity (a.u.).

With “GGTTGGTAGTGGTGAACTGGTTGGTGTTGGTGTTGTTGTTCGGAGTCACCTAGTGCAG”, the binding signal is 10700 fluorescence intensity (a.u.).

For the sequence “GATTAGTCATCCGTGACGGGCTCCTTACTACGCTGGTTTGCGGAGTCACCTAGTGCAG”, the binding signal was 8430 fluorescence intensity (a.u.).

Consider “ACCCACACACGCATTCACATCTCGCAATCTCACATCGCATCGGAGTCACCTAGTGCAG”, for which the binding signal is 8920 fluorescence intensity (a.u.).

For “CTCCCACGAACCGCACCTCACCTTCTTTCTCTTTCATTCTCGGAGTCACCTAGTGCAG”, the binding signal is 8450 fluorescence intensity (a.u.).

In the case of “TGCACACACTCACTCCTATAAACATATACACGTACACTCTCGGAGTCACCTAGTGCAG”, the binding signal is 9240 fluorescence intensity (a.u.).

On to “ATGTCTCTTCTCCATCCCACCAGTGTTGACTCTTGCGGCTCGGAGTCACCTAGTGCAG”, for which the binding signal was 8070 fluorescence intensity (a.u.).

As to “GGTATATGTTGCACGTAGTGTGCGCTTGTGGTTTGTGGTGCGGAGTCACCTAGTGCAG”, the binding signal was 8200 fluorescence intensity (a.u.).

Turning to “GAAAGGTAGGGTTAGGAGGTGGCGCGTGCGTGTGGGTTGGCGGAGTCACCTAGTGCAG”, the binding signal was 9010 fluorescence intensity (a.u.).

In the case of “CCACATATCATTGTCACGTATAATGGTATCTTGCAACTCACGGAGTCACCTAGTGCAG”, the binding signal is 9630 fluorescence intensity (a.u.).

For the sequence “GTATGTATGAATACATTAGTGCTTTCCAGTCTCTTGTACTCGGAGTCACCTAGTGCAG”, the binding signal was 9300 fluorescence intensity (a.u.).

For “ATCTTCCTTATATATACGCGCTCTCCCATTCGCGTGTGCTCGGAGTCACCTAGTGCAG”, the binding signal is 10100 fluorescence intensity (a.u.).

For the sequence “AAACCCTAGCCGCCGCCGCCGCCGCCTCCGCGTCCGCCTCCGGAGTCACCTAGTGCAG”, the binding signal was 8260 fluorescence intensity (a.u.).

Consider “CCACCCGCTGTTGCTTCCGCATCACCCATTCCCTTTTTCCCGGAGTCACCTAGTGCAG”, for which the binding signal was 12100 fluorescence intensity (a.u.).

Regarding “GGCATACTGTACTGCCTCTCTCTCTCTCTCTCTCTCTCTCCGGAGTCACCTAGTGCAG”, the binding signal is 9610 fluorescence intensity (a.u.).

Source of the values: paper PMC7819943, “Rice protein-binding microarrays: a tool to detect cis-acting elements near promoter regions in rice”.
